# Measurements from PubChem BioAssay (NCATS).
# Chains of the proteins cited; added tags and fusions are not shown.
# UniProt P27695, whole entry, looked up: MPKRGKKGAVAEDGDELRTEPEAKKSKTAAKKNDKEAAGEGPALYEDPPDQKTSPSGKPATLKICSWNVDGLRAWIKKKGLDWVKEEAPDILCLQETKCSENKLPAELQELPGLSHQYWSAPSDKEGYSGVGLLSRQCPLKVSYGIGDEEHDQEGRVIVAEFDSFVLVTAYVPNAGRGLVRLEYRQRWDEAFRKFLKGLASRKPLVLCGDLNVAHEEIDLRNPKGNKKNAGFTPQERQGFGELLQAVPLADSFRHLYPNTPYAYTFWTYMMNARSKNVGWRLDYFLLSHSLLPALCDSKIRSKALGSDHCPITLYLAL
# The inconclusive results got no clear call from the source; some entries with a clear call stand among them for comparison. Where the call is inconclusive, the potency comes from a doubtful curve fit. Calls of active or inactive are those of the source. Calls follow the shape of the dose curve; as a rule, active = well fitted inhibition curve with a large enough effect; inconclusive = small, poorly fitted or top-dose-only effect; inactive = no such curve, though single readings can be large or run the other way.
# Legend:
# [1] = Counterscreen for APE1 Inhibitors: Fluorescent Dye Displacement Assay (AID 2564); details: DNA fluorescent dye displacement counterscreen, fluorescence; series mostly up to 28.5 µM;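 also: loss of thiazole orange fluorescence as the dye is displaced from duplex DNA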
# Method in brief: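 Thiazole Orange (250 nM) bound to 50 nM TAMRA-labelled dsDNA with tetrahydrofuran abasic site; displacement by DNA-binding compounds lowers fluorescence. Buffer 50 mM Tris-HCl pH 7.5, 50 mM NaCl, 2 mM MgCl2, 0.01% Tween-20; endpoint read at 480/540 nm.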
# [2] = target: Endonuclease 4 (Escherichia coli (strain K12)) (UniProt P0A6C1); assay: Counterscreen for APE1 Inhibitors: qHTS Assay for Inhibitors of Endonuclease IV (AID 2565); details: E. coli Endo IV, fluorogenic AP-site DNA cleavage; series mostly up to 27.1 µM
# Method in brief: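 E. coli EndoIV at 2 nM final, preincubated 15 min at room temperature with compound, then 50 nM TAMRA/BHQ-2 THF abasic-site duplex added. Buffer: 50 mM Tris-HCl pH 7.5, 50 mM NaCl, 2 mM MgCl2, 1 mM DTT, 0.01% Tween-20. Kinetic fluorescence increase, third minus first read.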
# [3] = target: DNA repair nuclease/redox regulator APEX1 (Homo sapiens) (UniProt P27695); assay: Confirmation qHTS Assay for Inhibitors of the Human Apurinic/apyrimidinic Endonuclease 1 (APE1) (AID 2572); details: purified APE1, fluorogenic abasic-site DNA cleavage; series mostly up to 57.1 µM; also: nearly all actives have a fitted effect of over 30% in size
# Method in brief: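 Enzyme preincubated 15 min at room temperature with compound; reaction started with 50 nM final double-stranded THF abasic-site substrate (5'-TAMRA, 3'-BHQ-2). Fluorescence read kinetically (525/598 nm); third-minus-first read difference gives reaction progress.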
# [4] = target: DNA repair nuclease/redox regulator APEX1 (Homo sapiens) (UniProt P27695); assay: qHTS FP-Based Assay for Inhibitors of the Human Apurinic/apyrimidinic Endonuclease 1 (APE1) (AID 2573); details: APE1 binding to TAMRA-labelled double-stranded DNA, fluorescence polarization displacement; series mostly up to 28.5 µM
# Potency is read from the fitted curve at half-maximal effect.
SMILES,Potency [1],Potency [2],Potency [3],Potency [4]
CC1CC(=O)c2c(cc3c(-c4c(O)cc(O)c5c(O)c6c(cc45)OC(C)CC6=O)c(O)cc(O)c3c2O)O1 (centres undefined),active: 4.47 µM,"inconclusive: 10 µM [inhibitor, partial curve]",–,–
O=c1ccn(CCc2c[nH]c3ccccc23)c2c1CCCC2,inactive,–,–,–
CCN(CC)c1ccc(C(=C2C=CC(=[N+](CC)Cc3cccc(S(=O)(=O)[O-])c3)C=C2)c2ccc(N(CC)Cc3cccc(S(=O)(=O)O)c3)cc2)cc1,"inconclusive: 35.5 µM [inhibitor, partial curve]",active: 28.2 µM,active: 22.4 µM,active: 25.1 µM
O=C(CSc1nnc(COc2ccccc2Cl)o1)NC(=O)NCc1ccco1,"inconclusive: 10 µM [inhibitor, partial curve]",inactive,–,–
O=C1c2ccccc2C(=O)c2c([N+](=O)[O-])ccc(O)c21,"inconclusive: 17.8 µM [inhibitor, partial curve, poor fit]",inactive,–,–
CC1=[N+](C)c2ccc3ccccc3c2C1(C)C,inactive,"inconclusive: 8.91 µM [inhibitor, partial curve]","inconclusive: 0.0447 µM [inhibitor, partial curve, poor fit]",–
O=c1c(-c2c(O)cc(O)c3c(=O)cc(-c4ccc(O)cc4)oc23)c(-c2ccc(O)cc2)oc2cc(O)cc(O)c12,active: 14.1 µM,"inconclusive: 7.94 µM [inhibitor, partial curve]",–,–
Cc1c(Cl)cccc1N=Cc1ccc([N+](=O)[O-])s1,"inconclusive: 20 µM [inhibitor, partial curve, poor fit]",–,–,–
CN=c1scc(C)n1/N=C/c1ccc(O)c(O)c1O,"inconclusive: 14.1 µM [inhibitor, partial curve]",–,–,–
O=c1cc(-c2ccc(O)c(O)c2)oc2cc(O)c(C3OC(CO)C(O)C(O)C3O)c(O)c12 (centres undefined),"inconclusive: 15.8 µM [inhibitor, single point]",–,–,–
COc1ccc(/C=N/NC(=O)c2cc(O)c(O)c(O)c2)cc1Cn1cc([N+](=O)[O-])cn1,"inconclusive: 14.1 µM [inhibitor, partial curve]",–,–,–
CS(=O)(=O)N1Cc2ccccc2CC1C(=O)OCC(=O)Nc1ccc2ccccc2c1 (centres undefined),"inconclusive: 17.8 µM [inhibitor, partial curve, poor fit]","inconclusive: 14.1 µM [inhibitor, partial curve]","inconclusive: 14.1 µM [inhibitor, partial curve]","inconclusive: 14.1 µM [inhibitor, single point]"

# Not a retest: an excerpt of the list.
SMILES,Potency [1],Potency [2],Potency [3],Potency [4]
O=c1c(-c2c(O)cc(O)c3c(=O)cc(-c4ccc(O)cc4)oc23)c(-c2ccc(O)cc2)oc2cc(O)cc(O)c12,active: 14.1 µM,"inconclusive: 7.94 µM [inhibitor, partial curve]",–,–
Cc1c(Cl)cccc1N=Cc1ccc([N+](=O)[O-])s1,"inconclusive: 20 µM [inhibitor, partial curve, poor fit]",–,–,–
